# Some results were stated once for a whole list of compounds, not compound by compound.
# Target: T1, Recombinant human IKKβ (residues 5-756) (Homo sapiens, UniProt O14920)
# T1 construct: Recombinant human IKKβ (residues 5-756); GST (C); made in house
# T1 sequence (O14920 5-756): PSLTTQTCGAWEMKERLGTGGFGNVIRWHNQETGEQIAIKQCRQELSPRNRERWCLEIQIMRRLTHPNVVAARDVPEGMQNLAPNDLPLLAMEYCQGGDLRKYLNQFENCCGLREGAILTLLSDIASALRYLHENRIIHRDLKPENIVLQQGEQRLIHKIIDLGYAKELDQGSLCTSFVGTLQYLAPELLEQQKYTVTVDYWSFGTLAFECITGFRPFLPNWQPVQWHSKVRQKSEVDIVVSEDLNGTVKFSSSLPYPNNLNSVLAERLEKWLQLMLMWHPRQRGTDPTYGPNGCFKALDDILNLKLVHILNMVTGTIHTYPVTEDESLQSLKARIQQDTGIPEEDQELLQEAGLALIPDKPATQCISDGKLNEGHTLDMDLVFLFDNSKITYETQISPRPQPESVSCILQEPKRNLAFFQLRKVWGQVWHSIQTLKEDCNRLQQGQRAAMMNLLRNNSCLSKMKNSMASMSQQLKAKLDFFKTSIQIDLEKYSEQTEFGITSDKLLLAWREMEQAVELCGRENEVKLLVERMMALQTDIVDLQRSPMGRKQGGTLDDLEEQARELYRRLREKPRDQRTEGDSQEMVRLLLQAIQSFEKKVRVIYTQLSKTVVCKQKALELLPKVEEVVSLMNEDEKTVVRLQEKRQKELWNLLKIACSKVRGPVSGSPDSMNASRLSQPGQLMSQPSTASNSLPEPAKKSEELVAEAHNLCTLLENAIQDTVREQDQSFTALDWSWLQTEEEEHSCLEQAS
# Experiment: IKK2 assay (TR-FRET)
# Format: biochemical
row,Structure (SMILES),pIC50 potency against IKK2
1,"O=S(=O)(c1ccc(-c2ccnc3[nH]c(C(F)(F)F)cc23)cc1)N1CCCC1 [Example 70, 4-[4-(1-Pyrrolidinylsulfonyl)phenyl]-2-(trifluoromethyl)-1H-pyrrolo[2,3-b]pyridine]",≥ 5.0
2,"Cc1ccc(OCc2cc3c(-c4ccc(S(=O)(=O)N5CCCC5)cc4)ccnc3[nH]2)cn1.O=C(O)C(F)(F)F [Example 58, 2-{[(6-methyl-3-pyridinyl)oxy]methyl}-4-[4-(1-pyrrolidinylsulfonyl)phenyl]-1H-pyrrolo[2,3-b]pyridine trifluoroacetate]",≥ 5.0
3,"O=C(O)C(F)(F)F.O=S(=O)(NCCO)c1ccc(-c2ccnc3[nH]c(C(F)(F)F)cc23)cc1 [Example 121, N-(2-hydroxyethyl)-4-[2-(trifluoromethyl)-1H-pyrrolo[2,3-b]pyridin-4-yl]benzenesulfonamidetrifluoroacetate]",≥ 5.0
4,"C[C@@H](O)CNS(=O)(=O)c1ccc(-c2ccnc3[nH]c(C(F)(F)F)cc23)cc1 [Example 200, N-[(2R)-2-hydroxypropyl]-4-[2-(trifluoromethyl)-1H-pyrrolo[2,3-b]pyridin-4-yl]benzenesulfonamide]",≥ 5.0
5,"CC(C)(C)c1cc2c(-c3ccc(S(=O)(=O)NC4CCS(=O)(=O)C4)cc3)ccnc2[nH]1.O=C(O)C(F)(F)F (centres unmarked) [Example 107, 4-[2-(1,1-Dimethylethyl)-1H-pyrrolo[2,3-b]pyridin-4-yl]-N-(1,1-dioxidotetrahydro-3-thienyl)benzenesulfonamide trifluoroacetate]",≥ 5.0
6,"CC(C)(C)OC(=O)NCCCNS(=O)(=O)c1ccc(-c2ccnc3[nH]c(CC(N)=O)cc23)cc1 [Example 3, 1,1-Dimethylethyl{3-[({4-[2-(2-amino-2-oxoethyl)-1H-pyrrolo[2,3-b]pyridin-4-yl]phenyl}sulfonyl)amino]propyl}carbamate]",≥ 5.0
7,"CC(C)c1cc2c(-c3ccc(S(=O)(=O)NCCO)cc3)ccnc2[nH]1.O=C(O)C(F)(F)F [Example 116, N-(2-hydroxyethyl)-4-[2-(1-methylethyl)-1H-pyrrolo[2,3-b]pyridin-4-yl]benzenesulfonamidetrifluoroacetate]",≥ 5.0
8,"Cc1cc2c(-c3ccc(S(=O)(=O)NCCN)cc3)ccnc2[nH]1.O=C(O)C(F)(F)F [Example 62, N-(2-Aminoethyl)-4-(2-methyl-1H-pyrrolo[2,3-b]pyridin-4-yl)benzenesulfonamide trifluoroacetate]",≥ 5.0
9,"Cc1cc2c(-c3ccc(S(=O)(=O)N(C)C4CCCCC4)cc3)ccnc2[nH]1.O=C(O)C(F)(F)F [Example 159, N-cyclohexyl-N-methyl-4-(2-methyl-1H-pyrrolo[2,3-b]pyridin-4-yl)benzenesulfonamidetrifluoroacetate]",≥ 5.0
10,"CN1CCC(NCc2cc3c(-c4ccc(S(=O)(=O)N5CCCC5)cc4)ccnc3[nH]2)CC1.O=C(O)C(F)(F)F [Example 31, 1-methyl-N-({4-[4-(1-pyrrolidinylsulfonyl)phenyl]-1H-pyrrolo[2,3-b]pyridin-2-yl}methyl)-4-piperidinamine trifluoroacetate]",≥ 5.0
11,"O=C(O)C(F)(F)F.O=S(=O)(c1ccc(-c2ccnc3[nH]c(CN4Cc5ccccc5S4(=O)=O)cc23)cc1)N1CCCC1 [Example 45, 2-({4-[4-(1-pyrrolidinylsulfonyl)phenyl]-1H-pyrrolo[2,3-b]pyridin-2-yl}methyl)-2,3-dihydro-1,2-benzisothiazole 1,1-dioxide trifluoroacetate]",≥ 5.0
12,"Cc1ccc(OCc2cc3c(-c4ccc(S(=O)(=O)N5CCCC5)cc4)ccnc3[nH]2)c(C)n1.O=C(O)C(F)(F)F [Example 60, 2-{[(2,6-dimethyl-3-pyridinyl)oxy]methyl}-4-[4-(1-pyrrolidinylsulfonyl)phenyl]-1H-pyrrolo[2,3-b]pyridine trifluoroacetate]",≥ 5.0
13,"NCCNS(=O)(=O)c1ccc(-c2ccnc3[nH]c(Cn4ccnn4)cc23)cc1.O=C(O)C(F)(F)F [Example 97, N-(2-aminoethyl)-4-[2-(1H-1,2,3-triazol-1-ylmethyl)-1H-pyrrolo[2,3-b]pyridin-4-yl]benzenesulfonamide trifluoroacetate]",≥ 5.0
14,"O=S(=O)(N[C@H]1CCC[C@@H]1O)c1ccc(-c2ccnc3[nH]c(C(F)(F)F)cc23)cc1 [Example 226, N-[(1S,2S)-2-hydroxycyclopentyl]-4-[2-(trifluoromethyl)-1H-pyrrolo[2,3-b]pyridin-4-yl]benzenesulfonamide]",≥ 5.0
15,"O=C(O)C(F)(F)F.O=S1(=O)CCC(NS(=O)(=O)c2ccc(-c3ccnc4[nH]c(C5CC5)cc34)cc2)C1 (centres unmarked) [Example 122, 4-(2-cyclopropyl-1H-pyrrolo[2,3-b]pyridin-4-yl)-N-(1,1-dioxidotetrahydro-3-thienyl)benzenesulfonamidetrifluoroacetate]",≥ 5.0
16,"CC(C)c1cc2c(-c3ccc(S(=O)(=O)NC4CCS(=O)(=O)CC4)cc3)ccnc2[nH]1 [Example 67, N-(1,1-Dioxidotetrahydro-2H-thiopyran-4-yl)-4-[2-(1-methylethyl)-1H-pyrrolo[2,3-b]pyridin-4-yl]benzenesulfonamide]",≥ 5.0
17,"CC(C)(C)NS(=O)(=O)c1ccc(-c2ccnc3[nH]c(Cn4ccnn4)cc23)cc1 [Example 133, N-(1,1-dimethylethyl)-4-[2-(1H-1,2,3-triazol-1-ylmethyl)-1H-pyrrolo[2,3-b]pyridin-4-yl]benzenesulfonamide]",≥ 5.0
18,"CC[C@H](CO)NS(=O)(=O)c1ccc(-c2ccnc3[nH]c(C4CC4)cc23)cc1 [Example 209, 4-(2-Cyclopropyl-1H-pyrrolo[2,3-b]pyridin-4-yl)-N-[(1R)-1-(hydroxymethyl)propyl]-benzenesulfonamide]",≥ 5.0
19,"O=C(O)C(F)(F)F.O=S1(=O)CCC(NS(=O)(=O)c2ccc(-c3ccnc4[nH]c(C5CCC5)cc34)cc2)CC1 [Example 112, 4-(2-cyclobutyl-1H-pyrrolo[2,3-b]pyridin-4-yl)-N-(1,1-dioxidotetrahydro-2H-thiopyran-4-yl)benzenesulfonamidetrifluoroacetate]",≥ 5.0
20,"CC(C)(C)OC(=O)N1CCN(Cc2cc3c(-c4ccc(S(=O)(=O)NC5CCCCC5)cc4)ccnc3[nH]2)CC1 [Example 256, 1,1-dimethylethyl 4-[(4-{4-[(cyclohexylamino)sul-fonyl]phenyl}-1H-pyrrolo[2,3-b]pyridin-2-yl)methyl]-1-piperazinecarboxylate]",≥ 5.0
21,"CC(C)c1cc2c(-c3ccc(S(=O)(=O)N4CCC(N)CC4)cc3)ccnc2[nH]1.O=CO [Example 143, formic acid - 1-({4-[2-(1-methylethyl)-1H-pyrrolo[2,3-b]pyridin-4-yl]phenyl}sulfonyl)-4-piperidinamine]",≥ 5.0
22,"Cc1cc2c(-c3ccc(S(=O)(=O)NC(C)C)cc3)ccnc2[nH]1 [Example 160, N-(1-methylethyl)-4-(2-methyl-1H-pyrrolo[2,3-b]pyridin-4-yl)benzenesulfonamidetrifluoroacetate]",≥ 5.0
23,"O=S(=O)(c1ccc(-c2ccnc3[nH]c(Cn4cnnn4)cc23)cc1)N1CCCC1 [Example 77, 4-[4-(1-Pyrrolidinylsulfonyl)phenyl]-2-(1H-tetrazol-1-ylmethyl)-1H-pyrrolo[2,3-b]pyridine]",≥ 5.0

# Reference: patent publication US20080146606A1, “NOVEL COMPOUNDS” (priority 2006, published 2008)
